Record: PubChem BioAssay AID1053208 (Peter MacCallum Cancer Centre, 2014)
Purpose: 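Genes whose silencing cuts survival of bone tumour cells only with doxorubicin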 (primary screen). Cells: mouse osteosarcoma cells, early-passage culture from an engineered mouse model of fibroblastic bone tumour. Reagents: siRNA pool against mouse genes, 40 nM. Time to read-out: about 120 h (48 h before drug, then 72 h with drug). Treatment: doxorubicin 100 nM for 72 h, roughly 30-40% inhibitory dose. Measurement: 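Luminescent ATP signal taken as viability with or without 100 nM doxorubicin for 72 h; mean of two wells set against non-targeting siRNA and turned into robust z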. Scale: viability z-score with doxorubicin: higher = more viable cells under doxorubicin; viability z-score without drug: higher = more viable cells with knock-down alone. Call rule: 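Called active if knock-down leaves viability unchanged without drug (z within -2 to 2) but lowers it with doxorubicin (z at or under -2)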.
This is one part, drawn at random, of about 17,000 reagents tested. Over the whole deposit, 788 (4.7%) are marked active. 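Calls rest on z-score classes alone; an extra cut-off of viability at most 70% of control was not applied to them.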 Not all columns of the deposit are shown.

Against Npy6r [SID152316886], the values are combined z-score class no change with or without drug; viability z-score with doxorubicin -1.35; viability z-score without drug 1.35; inactive.
For Slc22a7 [SID152282635], the values are combined z-score class no change with or without drug; viability z-score with doxorubicin -0.67; viability z-score without drug -0.51; inactive.
Cdh17 [SID152280468] showed combined z-score class no change with or without drug; viability z-score with doxorubicin -1.01; viability z-score without drug -0.51; inactive.
Silencing of Rnps1 [SID152336796] resulted in: combined z-score class low cell count with doxorubicin only; viability z-score with doxorubicin -3.71; viability z-score without drug -1.85; active.
For Prrg4 [SID152318942], the values are combined z-score class no change with or without drug; viability z-score with doxorubicin 0; viability z-score without drug 0.84; inactive.
After knock-down of Slc36a1 [SID152311905], the screen gave combined z-score class no change with or without drug; viability z-score with doxorubicin -0.9; viability z-score without drug -0.17; inactive.
With knock-down of Ppp1r9b [SID152314772], the screen gave combined z-score class no change with or without drug; viability z-score with doxorubicin 1.35; viability z-score without drug -0.34; inactive.
After knock-down of Prl7a1 [SID152273971], the screen gave combined z-score class no change with or without drug; viability z-score with doxorubicin 0.79; viability z-score without drug -0.17; inactive.
Knock-down of Map3k20 [SID152283841] resulted in: combined z-score class no change with or without drug; viability z-score with doxorubicin 1.35; viability z-score without drug 0.34; inactive.
Silencing of Trappc2 [SID152304809] resulted in: combined z-score class no change with or without drug; viability z-score with doxorubicin -0.11; viability z-score without drug -0.17; inactive.
Against D130079A08Rik [SID152286475], the entry reads combined z-score class no change with or without drug; viability z-score with doxorubicin 0.9; viability z-score without drug 0; inactive.
With knock-down of Ifitm10 [SID152340085], the record shows combined z-score class no change with or without drug; viability z-score with doxorubicin 1.46; viability z-score without drug 1.85; inactive.
For Slc22a17 [SID152313077], the entry reads combined z-score class no change with or without drug; viability z-score with doxorubicin -1.12; viability z-score without drug 0; inactive.
Depletion of Trpm8 [SID152313252] came out at: combined z-score class no change with or without drug; viability z-score with doxorubicin 0.22; viability z-score without drug 0.51; inactive.
Daam1 [SID152336754] showed combined z-score class no change with or without drug; viability z-score with doxorubicin 0.22; viability z-score without drug 0.67; inactive.
For Col19a1 [SID152290770], the entry reads combined z-score class no change with or without drug; viability z-score with doxorubicin 1.01; viability z-score without drug 0.51; inactive.
Silencing of Gga1 [SID152271557] resulted in: combined z-score class no change with or without drug; viability z-score with doxorubicin -0.22; viability z-score without drug 1.52; inactive.
Silencing of Fads6 [SID152284985] resulted in: combined z-score class no change with or without drug; viability z-score with doxorubicin 0; viability z-score without drug 0.84; inactive.
Knock-down of Tat [SID152265790] resulted in: combined z-score class no change with or without drug; viability z-score with doxorubicin 0.67; viability z-score without drug -0.17; inactive.
Cntnap2 [SID152297783] scored combined z-score class no change with or without drug; viability z-score with doxorubicin 0; viability z-score without drug 0.67; inactive.
After knock-down of D7Ertd413e [SID152275070] the results were combined z-score class no change with or without drug; viability z-score with doxorubicin 1.12; viability z-score without drug -1.35; inactive.
Slc3a2 [SID152326149] showed combined z-score class no change with or without drug; viability z-score with doxorubicin -0.9; viability z-score without drug -0.67; inactive.
Against Rnf181 [SID152340021] the deposit lists combined z-score class high cell count without drug only; viability z-score with doxorubicin 1.46; viability z-score without drug 2.53; inactive.
Atp2b3 [SID152304822] showed combined z-score class no change with or without drug; viability z-score with doxorubicin -0.34; viability z-score without drug -1.52; inactive.
Syn3 [SID152319655] scored combined z-score class no change with or without drug; viability z-score with doxorubicin -0.45; viability z-score without drug -0.17; inactive.
Knock-down of Usp27x [SID152295924] gave: combined z-score class low cell count with doxorubicin only; viability z-score with doxorubicin -3.37; viability z-score without drug -0.51; active.
With knock-down of Or51f23b [SID152297856], the record shows combined z-score class low cell count with and without drug; viability z-score with doxorubicin -2.25; viability z-score without drug -2.02; inactive.
After knock-down of Nutm1 [SID152301087] the results were combined z-score class no change with or without drug; viability z-score with doxorubicin -0.45; viability z-score without drug -1.52; inactive.

An excerpt of the results above:
Slc36a1 [SID152311905]: combined z-score class = no change with or without drug; viability z-score with doxorubicin = -0.9; viability z-score without drug = -0.17; Outcome = inactive
Ppp1r9b [SID152314772]: combined z-score class = no change with or without drug; viability z-score with doxorubicin = 1.35; viability z-score without drug = -0.34; Outcome = inactive
Prl7a1 [SID152273971]: combined z-score class = no change with or without drug; viability z-score with doxorubicin = 0.79; viability z-score without drug = -0.17; Outcome = inactive
Map3k20 [SID152283841]: combined z-score class = no change with or without drug; viability z-score with doxorubicin = 1.35; viability z-score without drug = 0.34; Outcome = inactive
